From PubChem BioAssay AID504444 (National Center for Advancing Translational Sciences (NCATS), 2011)
Values joined by “and” are separate entries in the source; they are usually repeats but may differ in a detail not shown here. Equal values may be shown once. Screen size: about 360,000 compounds; about 7,500 (2.1%) were called active. The shares of active, inactive and inconclusive entries below differ from those in the screen. Calls follow the shape of the dose curve; as a rule, active = well fitted inhibition curve with a large enough effect; inconclusive = small, poorly fitted or top-dose-only effect, or effect the other way; inactive = flat fitted curve, though single readings scatter. Potencies beside an inconclusive call are fits to weak or partial responses and may not hold up.
% is scaled to controls: 0 for no effect and ±100 for the full control effect; potency is read from the fitted curve at half-maximal effect.

Experiment: Nrf2 qHTS screen for inhibitors; also: nearly all actives have a fitted effect of over 60% in size
Conditions: A549 ARE-Fluc reporter, luciferase luminescence, 18-24 h; activity change, negative = inhibition: at 46 µM (top of the series)
How it was run: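 Two sequential reads on A549 ARE_Fluc cells exposed to compound for 18-24 h: a CellTiter-Fluor fluorescence read for viability, then a luciferase luminescence read for Nrf2/ARE activity.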
With Cc1ccc(NC(=S)N(Cc2cccs2)Cc2cc3cc(C)ccc3[nH]c2=O)cc1 the Potency was inconclusive: 23.1 µM [activator, single point].
For CN(C)/C=N/C(=S)Nc1ccc(Cl)c(Cl)c1, the Potency was inconclusive: 8.2 µM [activator, partial curve, poor fit].
With CSc1ccccc1OCc1cc(C(=O)NC(C)CCn2cccn2)no1 (stereo not drawn) the “activity change, negative = inhibition” value was inactive: -27.4%.
For CC[C@@]1(c2cccc(C)c2)C(=O)N(C(=O)OC)N1C(=O)OC, the Potency was inconclusive: 10.3 µM [falling, partial curve].
For Clc1ccc2c(N/N=C/c3cccc(Br)c3)ccnc2c1, the “activity change, negative = inhibition” value was inactive: 18.3%.
With Cc1ccc(Nc2nc(N)nc(CN3CCN(Cc4ccccc4)CC3)n2)cc1Cl the Potency was inconclusive: 7.31 µM [activator, full curve, poor fit].
For CC(C)CC(=O)NC(Nc1ccc([N+](=O)[O-])cc1)C(Cl)(Cl)Cl (stereo not drawn), the Potency was inconclusive: 29.1 µM [falling, single point].
With COc1cc(/C=C/C(=O)Nc2nc3ccc(S(=O)(=O)N(C)C)cc3s2)cc(OC)c1OC the “activity change, negative = inhibition” value was inactive: -7.7%.
With COc1cc(C2C3=C(COC3=O)Oc3cc4c(cc32)OCO4)cc(OC)c1OC(C)=O (stereo not drawn) the Potency was inconclusive: 8.2 µM [activator, partial curve].
For c1ccc(Cn2nnnc2C(c2cccnc2)N2CCN(c3ccccc3)CC2)cc1 (stereo not drawn), the Potency was inconclusive: 4.11 µM [falling, full curve].
For Cc1ccc(Cn2c(C(=O)O)c(CNCCc3cccs3)c3ccc(C)cc32)cc1, the Potency was inconclusive: 10.3 µM [activator, single point].
For CC(=O)/C=C/c1ccccc1O, the Potency was inconclusive: 3.66 µM [activator, single point].
In the case of O=C(Nc1cccnc1)c1ccc(CN2CCc3ccccc3C2)cc1, the Potency is reported as active: 13 µM.
In the case of Cc1cccc2c(=O)cc(C(F)(F)F)[nH]c12, the Potency is reported as inconclusive: 29.1 µM [activator, partial curve, poor fit].
In the case of CC1CCCC(N2CCN(S(=O)(=O)c3ccccc3)CC2)C1 (stereo not drawn), the Potency is reported as inconclusive: 6.51 µM [activator, single point].
With CN(CC(=O)Nc1ccc(S(=O)(=O)N2CCCC2)cc1)Cc1c(F)cccc1Cl the Potency was inconclusive: 20.6 µM [falling, single point].
With Cc1ccc2c(c1)cc(C(=O)NCc1ccc(F)cc1)n2C the Potency was inconclusive: 5.8 µM [activator, partial curve].
With COc1ccccc1N1CCN(c2ccc(=O)n(CC(=O)O)n2)CC1 the “activity change, negative = inhibition” value was inactive: 3.33%.
For Cc1nonc1C1CCCN1C(=O)c1cc(COc2ccc(F)cc2Cl)on1 (stereo not drawn), the Potency was inconclusive: 29.1 µM [activator, single point].
With COC(=O)c1cnn(-c2ccc(Cl)cc2)c1/C=N/NC(N)=S the Potency was inconclusive: 20.6 µM [falling, single point].
For CN(CC(=O)Nc1ccc(F)cc1)C(=O)COC(=O)COc1ccc(C#N)cc1, the “activity change, negative = inhibition” value was inactive: 4.57%.
With Cc1cccc(N=C2NN=C(c3ccc4c(c3)OCCO4)CS2)c1 the Potency was inconclusive: 32.6 µM [falling, single point].
In the case of CCc1nc(N)nc(N)c1-c1ccc(Cl)c(N=[N+]=[N-])c1, the Potency is reported as inconclusive: 13 µM [falling, partial curve] and inconclusive: 6.51 µM [falling, partial curve].
In the case of Cn1c(SCc2cccc3ccccc23)nnc1-c1ccco1, the Potency is reported as inconclusive: 29.1 µM [falling, single point].
With Cc1ccccc1NC(=O)c1c(C)oc2ccc(O)c(CN3CCCC(C)C3)c12 (stereo not drawn) the “activity change, negative = inhibition” value was inactive: 1.76%.
With CCCCN(C(=O)CCC(=O)Nc1cc(C)on1)C(C(=O)NC(C)(C)CC)c1cccc(OC)c1OC (stereo not drawn) the Potency was inconclusive: 29.1 µM [falling, single point].
With COc1cc2c(cc1OC)C(c1ccc(F)cc1)N(c1ccccc1)C(=O)C2 (stereo not drawn) the “activity change, negative = inhibition” value was inactive: -8.37%.
In the case of CCOC(=O)c1ccc(NC(=O)c2nc[nH]c2C(=O)N2CCN(c3ccccc3)CC2)cc1, the Potency is reported as inconclusive: 29.1 µM [falling, single point].
With COc1ccc(CN2CCN(c3ncccn3)CC2)c(C)c1C the Potency was inconclusive: 20.6 µM [falling, single point].
For COc1ccccc1NC(=S)N(Cc1ccco1)Cc1cc2cc(C)ccc2[nH]c1=O, the “activity change, negative = inhibition” value was inactive: 9.14%.
For Cc1nnc(N2CCC(C(=O)NCc3ccc(F)cc3)CC2)c2nn(-c3ccc(Cl)cc3)c(C)c12, the “activity change, negative = inhibition” value was inactive: 22.9%.
For S=C(Nc1ccccc1)N1CCc2ccccc21, the Potency was inconclusive: 29.1 µM [activator, single point].
With CC(=O)CSc1nc2cc3c(cc2cc1C#N)OCCO3 the Potency was inconclusive: 0.517 µM [activator, partial curve, poor fit].
For O=c1[nH]c(/C=C/c2ccccc2OC(F)F)nc2c1cnn2-c1ccccc1, the Potency was inconclusive: 20.6 µM [falling, partial curve].
In the case of COC(=O)Cc1c(C)c2ccc(OCC(=O)N3CCCC3)c(C)c2oc1=O, the “activity change, negative = inhibition” value is reported as inactive: -4.33%.
For CCc1nc(N)nc(N)c1-c1ccc(Cl)cc1, the Potency was inconclusive: 11.6 µM [falling, partial curve, poor fit].
In the case of c1ccc(-c2csc(Nc3nc(N4CCOCC4)nc(N4CCOCC4)n3)n2)cc1, the Potency is reported as inconclusive: 2.06 µM [falling, full curve, poor fit].
For CC(C)(C)c1ccc(C(=O)NC(=O)COC(=O)CCS(=O)(=O)c2ccccc2)cc1, the “activity change, negative = inhibition” value was inactive: 4.82%.
With Cc1cc(C)cc(N(C(=O)Cc2cccs2)C(C(=O)NC2CCCCC2)c2ccccn2)c1 (stereo not drawn) the “activity change, negative = inhibition” value was inactive: -14%.
For CCCCc1c(C)nn(-c2nnc3c4ccccc4n(CC)c3n2)c1C, the Potency was inconclusive: 29.1 µM [falling, single point].
With CN(C)CCn1c2ccccc2c2nc3ccc([N+](=O)[O-])cc3cc21 the Potency was inconclusive: 7.31 µM [falling, full curve].
With Cc1ccc(N2CSC3=C(C#N)C(c4cccs4)CC(=O)N3C2)cc1 (stereo not drawn) the Potency was inconclusive: 20.6 µM [activator, single point].
With CCOc1ccc(-n2nc(C(=O)NC3CCCCC3)c3ccccc3c2=O)cc1 the Potency was inconclusive: 4.11 µM [falling, single point].
